The results in this text go back to PubChem BioAssay AID493014 (National Center for Advancing Translational Sciences (NCATS), 2011).

Some of the results follow. Shown are side measurements of this screen, not its main read-out; they come without a call. Most of these compounds were active or inconclusive in the main read-out, so they are no random draw. Potencies come from curve fits of mixed quality, noted in brackets.

A short description of the test: qHTS Assay to Find Inhibitors of Chronic Active B-Cell Receptor Signaling. Conditions: ABC-DLBCL IkBa-CBG/CBR reporter, luminescence ratio (green luciferase fused to IkBa over red control in TMD8 lymphoma cells), 4 h. From the text: NIH Molecular Libraries Probe Production Network [MLPCN] NIH Chemical Genomics Center [NCGC] MLPCN Grant: 1 R03 DA031086-01A1 PI Name: Dr. R. Eric Davis NCGC Assay Overview: Diffuse large B-cell lymphoma (DLBCL) is the most common category of non-Hodgkin lymphoma, with ~20,000 new cases per year in the United States. DLBCL should be regarded as a collection of different neoplasms. Microarray gene expression analysis has defined two principal types of DLBCL, named for their similarity to normal B cell stages or activation states: a germinal center B-cell (GCB) type, and an activated B-cell (ABC) type. In ABC-DLBCL, a constitutive high-level activity of the NF-kappaB family of transcription factors has been observed (1) and NF-kappaB target genes are more highly expressed in ABC primary tumors than in GCB tumors. Functional studies have shown a constitutive high-level activity of the IkappaB (inhibitor of kappa-B) kinase (IKK) complex. […] Further analysis of DLBCL primary tumors for NF-kappaB target gene expression imply that although CARD11 is required for constitutive IKK activity in all ABC-DLBCL lines, mutations in CARD11 may be the root cause of IKK activation only in lines or tumors with such mutations. In other words, CARD11 mutations may explain NF-kappaB activation in only 10% of ABC-DLBCL cases. […] This process has been termed 'chronic active BCR signaling' (CABS). The goal of this screen is to find small-molecule inhibitors of the CABS pathway found in ABC-DLBCL lines using a cell-based assay that measures IkappaBalpa stability, which has already been extensively validated in the OCI-Ly3 line (PubChem AID:445; REF: 4). […] The assay uses green (CBG68) and red (CBR) emitting beetle luciferases [Chroma-GloTM developed by Promega Corp.] where the green luciferase is fused to IkappaBalpha and the red luciferase is present in its native state. Both luciferase genes are stably present in the TMD8 human ABC DLBCL cell line, but their expression is under the control of tetracycline-inducible promoters. Following the addition of doxycycline to induce expression of the luciferases, the green luminescence in control cultures rises only slowly because the CBG fusion partner IkappaBalpha is targeted by IKK activity for rapid degradation. In contrast, green luminescence rises rapidly in the presence of proteasome inhibitors or IKK inhibitors. The rise in red luminescence of CBR is not affected by proteasome or IKK inhibitors, and serves as normalization for cell number and nonspecific effects. Compounds were screened as a concentration-titration series that ranged from 46 uM to 3 nM.
NCGC Assay Protocol Summary: Cells were seeded in 1536-well plates at 5000 cells/4uL in IMDM medium containing 0.5% FBS, w/o phenol red, 1% penicillin/streptomycin. Then, 23 nL of compounds or DMSO were delivered to each well using a pin tool. One uL 20ng/ml doxycycline was then dispensed into white solid 1536-well plates and the plates were incubated at 37C/5% C02 in a cell incubator for 4 hrs. Then 4 uL luminescent substrate mix (in-house prepared: 150 mM Tris-Cl, pH 7.6, 3 mM MgCl2, 1% Triton X-100, 5 mM DTT, 0.2 mM CoA, 0.15 mM ATP, 5 mM D-luciferin, final concentrations) was added to each well. The plate was incubated at r.t. for 10-15 min. The plates were measured on a ViewLux plate reader for green luminescence (540/20 nm filter) and red luminescence (618/8 nm filter). The green and red luminescent signals were corrected for red and green luminescence filter overlap using previously determined filter calibration constants (determined using the procedure outlined in the Promega Technical Manual; REF 4). The %Activity was determined from the ratio of corrected green/red luminescent values. MG132 were used as control. […] Red luminescent %Activity was normalized to the difference between red luminesence in basal cells (0%Activity) and zero luminescence (-100% Activity). […]
Background: In qHTS, concentration-response curves come from the screen itself.

Where [1] appears, read: measured here: CBR red luminescence, cell number.
[2] abbreviates: measured here: IkBa-CBG green luminescence.

As a reminder, the AC50 is the midpoint of the concentration-response curve, whichever way the signal moves. On to `Cc1ccsc1/C=N/Nc1ccc(Cl)nn1`, for which the AC50 under setting [1] was 0.447 µM [rising, full curve, poor fit].
With `O=C(c1cc([N+](=O)[O-])ccc1N1CCOCC1)N1CCN(c2ccccc2)CC1`, the AC50 reads like this: under setting [1], 2.82 µM [rising, full curve]; under setting [2], 2.51 µM [falling, full curve].
Consider `Cc1nc(SCC(=O)N(C)C2CCS(=O)(=O)C2)c2ccccc2n1` (stereo not drawn), for which the AC50 under setting [1] is 18.4 µM [falling, single point].
As for `NC(=O)CC(NC(=S)NCc1ccccc1)C(=O)O` (stereo not drawn), the AC50 under setting [1] was 18.4 µM [falling, partial curve, poor fit].
As to `COc1ccc(C(=O)Nc2nnc(C(F)(F)F)s2)cc1`, under setting [1], the AC50 is 1.12 µM [falling, full curve].
The same measure, in the same setting: to `O=C(Oc1c(-c2ccccc2)c(=O)n2c3c(cccc13)CC2)c1ccccc1` belongs 8.91 µM [falling, partial curve, poor fit]; to `CCCCn1c(-c2ccccc2)cnc1SCC(=O)NCCc1ccc(OC)c(OC)c1`, 2.91 µM [rising, single point]; to `O=[N+]([O-])c1ccc(N/N=C/c2cccc(O)c2O)cc1`, 17.8 µM [falling, single point].
On to `Oc1ccc(/C=N/Nc2nc(-c3ccccc3F)nc3ccccc23)c(O)c1`, for which the AC50 under setting [1] was 5.01 µM [falling, partial curve].
For the compound `Cc1c(O)ccc(C(=O)CN2CCN(Cc3ccccc3)CC2)c1O`, under setting [1], the AC50 is 2.82 µM [falling, partial curve, poor fit].
On to `COc1ccc(/C=C/C(=O)Nc2cccc(S(=O)(=O)NC3=NCCCCC3)c2)cc1OC`, for which the AC50 under setting [1] was 29.1 µM [falling, single point].
With `Clc1ccc(Cc2nnc(-c3cccs3)o2)cc1`, the AC50 under setting [1] is 6.51 µM [rising, partial curve].
With `Brc1cc(Br)cc(CN2CCSCC2)c1`, the AC50 under setting [1] is 31.6 µM [falling, single point].
In the case of `COc1ccc(C)c(-n2c(=O)n(Cc3ccccc3)c(=O)c3[nH]cnc32)c1`, under setting [1], the AC50 was 12.6 µM [rising, partial curve].
As to `O=C(Nc1nncs1)c1cc2c(s1)CCC2`, the concentration at half-maximal activity (AC50) under setting [1] is 3.55 µM [rising, partial curve, poor fit].
In the case of `COc1ccc(CNc2ncnc3c2cnn3-c2ccc(C)c(C)c2)cc1`, the AC50 under setting [1] was 14.1 µM [falling, partial curve, poor fit].
Same read-out and setting: to `CCN(CC)C1CCN(C(=O)CCc2nnc(CCCCc3ccccc3)o2)C1` (stereo not drawn) belongs 35.5 µM [rising, single point]; to `Cc1ccccc1C(=O)Nc1sc2c(c1C(=O)O)CCC2`, 3.55 µM [falling, partial curve, poor fit].
`Nc1c(C(=O)c2ccccc2)sc2c1c(=O)[nH]c(=O)n2-c1ccccc1`: the AC50 under setting [1] is 18.4 µM [rising, single point].
With `Cc1csc(NC(=O)/C=C/c2ccc(C)o2)n1`, the AC50 under setting [1] was 18.4 µM [falling, single point].
On the same count and under the same terms, under `CCN(CC)C(=O)CSc1nnc(-c2ccccc2)n1N` stands 22.4 µM [rising, single point]; under `CC(=O)c1ccc(N(C(=O)Cn2nnc(-c3ccccc3)n2)C(C(=O)NC2CCCCC2)c2ccccn2)cc1` (stereo not drawn), 13 µM [rising, partial curve, poor fit]; under `CCCc1cc(C(=O)Cc2nc3ccccc3s2)c(O)cc1O`, 14.1 µM [falling, single point].
Still for that read-out and setting: to `CCCC(=O)c1cc(F)c(N2CCN(S(=O)(=O)c3ccccc3)CC2)cc1C` belongs 20.6 µM [rising, partial curve, poor fit].
With `CCOC(=O)c1sc(NC(=O)c2c(OC)cccc2OC)nc1C`, the AC50 under setting [1] is 4.11 µM [falling, full curve, poor fit] and the AC50 under setting [2] was 4.61 µM [rising, full curve, poor fit].
Take `O=C(Nc1nccs1)C1CCN(S(=O)(=O)c2ccccc2)CC1`: the AC50 under setting [1] is 25.1 µM [falling, single point].
On the same count and under the same terms, to `COc1ccc(C(C)NC(=O)Cc2cccs2)cc1OC` (stereo not drawn) belongs 35.5 µM [rising, partial curve, poor fit].
In the case of `COc1cc(OC)c(N2CC(C(=O)Nc3cc(Cl)ccc3N3CCOCC3)CC2=O)cc1Cl` (stereo not drawn), the AC50 reads like this: under setting [1], 23.1 µM [rising, partial curve]; under setting [2], 20.6 µM [falling, single point].
For `CC1=C(n2nnc([N+](=O)[O-])n2)C(c2cccnc2)C(C#N)=C(N)O1` (stereo not drawn), the half-maximal activity concentration (AC50) under setting [1] is 16.4 µM [falling, single point].
Turning to `Cc1cc(N=Cc2c(O)n(-c3cccc(Cl)c3)c(=O)c3ccccc23)no1`, the AC50 under setting [1] was 0.461 µM [rising, full curve, poor fit].
